{"source": "PubChem BioAssay AID662", "about": "(National Center for Advancing Translational Sciences (NCATS), 2007)", "note": "Some of the results follow. Shown are side measurements of this screen, not its main read-out; they come without a call. The list favours compounds with an active or inconclusive main result. Words in brackets tell the shape of the fitted curve; partial curves, single points and poor fits give uncertain potencies."}
{"assay": "Cell signaling CRE-BLA (Fsk stim)", "settings": "CHO CRE-bla reporter (cAMP response element driving beta-lactamase), forskolin EC10, beta-lactamase ratio; measured here: 460 nm blue channel", "summary_of_the_method": "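The 460nm/530nm emission ratio after CCF4 loading defined %Activity, from which AC50 values were obtained. CRE-bla CHO cells received compound dilution series together with an EC10 level of NKH 477 for 3 hours at 37 degrees Celsius.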"}
{"smiles": "COc1ccc(OC)c(NC(=O)CSc2nc(N)c(-c3ccccc3)c(=O)[nH]2)c1", "AC50": "10 µM [rising, partial curve]"}
{"smiles": "CN1CCN(c2ncc3nc(CCc4ccccc4)c(=O)n(Cc4ccc(F)cc4)c3n2)CC1", "AC50": "10 µM [rising, partial curve]"}
{"smiles": "COC(=O)c1c(-c2cccc(OC)c2)csc1N", "AC50": "12.6 µM [rising, partial curve]"}
{"smiles": "COc1cc(S(=O)(=O)n2c(C)nc3ccccc32)ccc1F", "AC50": "15.8 µM [rising, single point]"}
{"smiles": "CCC(c1nnc(SCc2nc3ccccc3s2)n1Cc1ccccc1)N(C)C", "note": "(configuration not stated)", "AC50": "1.26 µM [falling, partial curve]"}
{"smiles": "COc1nc(OC)nc(N2CCC(NC(=O)C(Cc3ccc(C(C)C)cc3)NC(C)=O)CC2)n1", "note": "(configuration not stated)", "AC50": "0.00794 µM [falling, full curve, poor fit]"}
{"smiles": "CCN(CC)S(=O)(=O)c1ccc(Cl)c(C(=O)NC)c1", "AC50": "0.794 µM [falling, partial curve, poor fit]"}
{"smiles": "CSCCC(NC(N)=O)C(=O)N(C)CC(=O)Nc1ccc(C)cc1", "note": "(configuration not stated)", "AC50": "2.51 µM [falling, partial curve, poor fit]"}
{"smiles": "CCN1CCCC1Cn1c(-c2ccccc2)nc2c(N(CCOC)CCOC)nc(C)nc21", "note": "(configuration not stated)", "AC50": "10 µM [rising, partial curve]"}
{"smiles": "N#CCCn1c(=O)c(-c2ccccc2)nc2cnc(N3CCNCC3)nc21", "AC50": "12.6 µM [rising, partial curve]"}
{"smiles": "CCCOc1cccc(C(=O)Nc2cc(NC(=O)c3ccco3)ccc2OC)c1", "AC50": "12.6 µM [rising, single point]"}
{"smiles": "CC(C)(C)OC(=O)N1CCC[C@H]1c1nnc(SCc2ccc(Cl)cc2Cl)o1", "AC50": "2 µM [rising, partial curve]"}
{"smiles": "O=C(Cc1ccc(-n2cccc2)cc1)N1CCc2ccccc21", "AC50": "20 µM [rising, single point]"}
{"smiles": "COc1ccc(CCNS(=O)(=O)c2ccc3c(c2)CC(C)N3C(C)=O)cc1OC", "note": "(configuration not stated)", "AC50": "10 µM [rising, single point]"}
{"smiles": "Cc1nc(N2CCC(C)CC2)c2oc3ccccc3c2n1", "AC50": "10 µM [rising, partial curve]"}
{"smiles": "COc1ccc(-c2cc(=O)c3c(O)cc(O)cc3o2)cc1", "AC50": "12.6 µM [falling, single point]"}
{"smiles": "COc1cccc(CN2C(=O)CCC2(C)C(=O)NC2CCCCCC2)c1", "note": "(configuration not stated)", "AC50": "15.8 µM [falling, partial curve, poor fit]"}
{"smiles": "Cc1c(Cl)cccc1NC(=O)c1cc(-c2ccc(O)cc2)on1", "AC50": "10 µM [falling, partial curve]"}
{"smiles": "CC(=O)c1ccc(N2C(=O)C3C(C2=O)C(C(=O)c2ccc(Cl)cc2)N2CCCC32)cc1", "note": "(configuration not stated)", "AC50": "3.16 µM [falling, single point]"}
{"smiles": "Cc1ccc(C(=O)N2c3ccc(F)cc3CCC2C)o1", "note": "(configuration not stated)", "AC50": "10 µM [rising, partial curve]"}
{"smiles": "Cc1ccc(S(=O)(=O)c2c(N)n(NC(=O)c3ccco3)c3nc4ccccc4nc23)cc1", "AC50": "3.16 µM [rising, full curve, poor fit]"}
{"smiles": "COc1ccc(-n2nnnc2SCC(=O)Nc2cccc(NC(C)=O)c2)cc1OC", "AC50": "7.94 µM [rising, partial curve]"}
{"smiles": "CCN(CC)CCCNC(=O)CC1Sc2ccccc2NC1=O", "note": "(configuration not stated)", "AC50": "0.251 µM [falling, partial curve]"}
{"smiles": "CCCN(Cc1cc2cc(C)ccc2[nH]c1=O)C(=O)c1cccc(OC)c1", "AC50": "10 µM [rising, partial curve]"}
{"smiles": "CN(Cc1ccco1)c1cc(-c2cccc(C#N)c2)ncn1", "AC50": "12.6 µM [rising, single point]"}
{"smiles": "O=c1c(-c2ccccc2)nc2cnc(N3CCOCC3)nc2n1C1CC1", "AC50": "7.94 µM [rising, partial curve]"}
{"smiles": "CCOC(=O)N1CCN(c2nc(SC)nc3sc4c(c23)CC(C)(C)OC4)CC1", "AC50": "12.6 µM [rising, single point]"}
{"smiles": "CCOc1ccc2nc(N3CCOCC3)nc(C)c2c1", "AC50": "10 µM [rising, partial curve]"}
{"smiles": "C/C(=N\\O)C1/C(=N/O)CC2C1C2(C)C", "note": "(configuration not stated)", "AC50": "0.0251 µM [falling, full curve, poor fit]"}
{"smiles": "CCc1nnc(NC(=O)CSc2nc3c(cc2C#N)CCC3)s1", "AC50": "0.398 µM [rising, full curve]"}
{"smiles": "Cc1cc(Nc2ccc(F)c(Cl)c2)n2nc(C)nc2n1", "AC50": "12.6 µM [rising, partial curve]"}
{"smiles": "O=C(Nc1ccc2c(c1)OCO2)C1CCCN1C(=O)OCc1ccccc1", "note": "(configuration not stated)", "AC50": "1 µM [falling, partial curve]"}
{"smiles": "CCNc1ncc2nc(-c3ccc(Cl)cc3)c(=O)n(CCC#N)c2n1", "AC50": "2 µM [rising, full curve]"}
{"smiles": "CCOC(=O)c1c(N)sc(C(=O)N2CCCC2)c1C", "AC50": "15.8 µM [rising, single point]"}
{"smiles": "COc1ccc(-n2c(=O)c(CCc3ccccc3)nc3cnc(N4CCOCC4)nc32)cc1", "AC50": "12.6 µM [rising, partial curve]"}
{"smiles": "CCCCCc1c(C)nc(N2CCOCC2)[nH]c1=O", "AC50": "12.6 µM [rising, single point]"}
{"smiles": "COc1cc2nc(N3CCN(C(=O)c4ccco4)CC3)nc(N)c2cc1OC", "AC50": "20 µM [rising, partial curve, poor fit]"}
{"smiles": "O=S(=O)(c1ccc(N2CC=C(c3ccccc3)CC2)nc1)N1CCCC1", "AC50": "20 µM [rising, single point]"}
{"smiles": "Cc1ccccc1Cn1cc(S(=O)(=O)CC(=O)Nc2nccs2)c2ccccc21", "AC50": "12.6 µM [falling, single point]"}
{"smiles": "Cc1ccc(OCCn2c(C)c(/C=N/n3cnnc3)c3ccccc32)cc1", "AC50": "1 µM [rising, full curve]"}
{"smiles": "CC(C)C1C(C#N)=C(N)SC(N)=C1C#N", "AC50": "0.398 µM [rising, full curve]"}
{"smiles": "CC(=O)O[C@H]1CC[C@@]2(C)[C@@H](CC[C@@]3(C)[C@H]2C(=O)C=C2[C@H]4C[C@](C)(C(=O)OCCN5CCCCC5)CC[C@]4(C)CC[C@@]23C)C1(C)C", "AC50": "12.6 µM [rising, single point]"}
{"smiles": "Cc1ccc(-c2nc3c(=O)n(C)c4ccccc4c3o2)cc1", "AC50": "2 µM [rising, single point]"}
{"smiles": "COC(=O)c1ccccc1NC(=O)C12CCC(C)(C(=O)O1)C2(C)C", "note": "(configuration not stated)", "AC50": "12.6 µM [rising, partial curve]"}
{"smiles": "COc1cccc(Nc2ncc3nc(C)c(=O)n(C)c3n2)c1", "AC50": "15.8 µM [rising, partial curve, poor fit]"}
{"smiles": "CC1(C)CC(=O)c2cc(OCC(=O)NCc3cccnc3)ccc2O1", "AC50": "10 µM [rising, single point]"}
{"smiles": "Cc1cc(C(=O)CSc2nnc(-c3cccnc3)n2-c2ccccc2F)c(C)n1C", "AC50": "5.01 µM [falling, single point]"}
{"smiles": "CCOC(=O)c1[nH]c(C)c(C(=O)NCc2ccc(C)cc2)c1C", "AC50": "10 µM [rising, partial curve]"}
{"smiles": "CC1(C)Cc2c(sc3c2c(=N)n(Cc2ccco2)c(=O)n3Cc2ccccc2)CO1", "AC50": "5.01 µM [rising, partial curve]"}
{"smiles": "Cc1ccccc1-c1nnc(SCC(=O)Nc2cccc(C)c2C)o1", "AC50": "0.0316 µM [falling, full curve, poor fit]"}
{"smiles": "O=C(CSc1ncn[nH]1)Nc1ccc(Cl)c(Cl)c1", "AC50": "7.94 µM [falling, partial curve]"}
{"smiles": "Cc1nc2ccccc2c(=O)n1/N=C/c1cn(-c2ccccc2)nc1-c1cccs1", "AC50": "2.51 µM [rising, full curve]"}
{"smiles": "CCn1c(SCC(=O)Nc2cc(C)on2)nnc1-c1ccncc1", "AC50": "3.98 µM [falling, single point]"}
{"smiles": "O=C1CC(=O)CC(c2ccccc2Cl)C1", "AC50": "0.398 µM [rising, partial curve]"}
{"smiles": "Cc1ccc(Cn2nnc3c(=O)n(Cc4cc(C)ccc4C)cnc32)cc1", "AC50": "12.6 µM [rising, single point]"}
{"smiles": "CCN(C(=O)COc1cc(=O)n(CC)c2ccccc12)c1cc(Cl)ccc1OC", "AC50": "12.6 µM [rising, partial curve]"}
{"smiles": "CCC(=O)N1CCCc2cc(S(=O)(=O)N3CCN(C4CCCCC4)CC3)ccc21", "AC50": "0.126 µM [falling, full curve]"}
{"smiles": "O=C(c1cc2nc(C3CC3)cc(C(F)(F)F)n2n1)N1CCCC1", "AC50": "12.6 µM [rising, single point]"}
{"smiles": "O=C(NCC1COc2ccccc2O1)C1CCCN(S(=O)(=O)c2cccc3nsnc23)C1", "note": "(configuration not stated)", "AC50": "0.0631 µM [falling, full curve, poor fit]"}
{"smiles": "CCC(C)(C(=O)NC1CCCC1)N(C(=O)CNC(C)=O)c1ccccc1", "note": "(configuration not stated)", "AC50": "2 µM [falling, partial curve, poor fit]"}
{"smiles": "COc1ccccc1C1C=C(c2ccc(Cl)cc2)Nc2nc(NS(C)(=O)=O)nn21", "note": "(configuration not stated)", "AC50": "20 µM [rising, single point]"}
{"smiles": "Cc1nc(SCC(=O)Nc2ccc(C)c(F)c2)c2oc3ccccc3c2n1", "AC50": "0.631 µM [rising, full curve]"}
{"smiles": "CCOC(=O)c1c(/N=C/N(C)C)sc(C(=O)OC)c1C", "AC50": "10 µM [rising, single point]"}
{"smiles": "O=C(Nc1ncc(Br)s1)C(Cc1ccccc1)n1cccc1", "note": "(configuration not stated)", "AC50": "25.1 µM [falling, single point]"}
{"smiles": "c1ccc2c(c1)Cc1cc3cc4c(cc3nc1-2)OCO4", "AC50": "15.8 µM [rising, single point]"}
{"smiles": "CN(C)C(=O)c1ccc(-c2nc(NCc3cccnc3)c3ccccc3n2)cc1", "AC50": "3.16 µM [rising, full curve]"}
{"smiles": "Clc1ccc(OCc2nn3c(-c4ccco4)nnc3s2)c(Cl)c1", "AC50": "25.1 µM [falling, single point]"}
